# Test results: the supplement of paper PMC12819154, “High-throughput peptide-centric local stability assay extends protein–ligand identification to membrane proteins, tissues and bacteria” (Nature Structural & Molecular Biology, 2025)
# Protein sequences, listed by entry. Tags and fused reporters are not part of them. Lines headed by an entry give the natural chain unless they say otherwise; changes in a name come on top.
# UniProt Q9Y2Q5, whole entry: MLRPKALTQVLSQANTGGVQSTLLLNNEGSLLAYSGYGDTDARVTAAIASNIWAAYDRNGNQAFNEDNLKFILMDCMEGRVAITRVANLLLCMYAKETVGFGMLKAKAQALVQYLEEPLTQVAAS
# UniProt Q9Y2E8: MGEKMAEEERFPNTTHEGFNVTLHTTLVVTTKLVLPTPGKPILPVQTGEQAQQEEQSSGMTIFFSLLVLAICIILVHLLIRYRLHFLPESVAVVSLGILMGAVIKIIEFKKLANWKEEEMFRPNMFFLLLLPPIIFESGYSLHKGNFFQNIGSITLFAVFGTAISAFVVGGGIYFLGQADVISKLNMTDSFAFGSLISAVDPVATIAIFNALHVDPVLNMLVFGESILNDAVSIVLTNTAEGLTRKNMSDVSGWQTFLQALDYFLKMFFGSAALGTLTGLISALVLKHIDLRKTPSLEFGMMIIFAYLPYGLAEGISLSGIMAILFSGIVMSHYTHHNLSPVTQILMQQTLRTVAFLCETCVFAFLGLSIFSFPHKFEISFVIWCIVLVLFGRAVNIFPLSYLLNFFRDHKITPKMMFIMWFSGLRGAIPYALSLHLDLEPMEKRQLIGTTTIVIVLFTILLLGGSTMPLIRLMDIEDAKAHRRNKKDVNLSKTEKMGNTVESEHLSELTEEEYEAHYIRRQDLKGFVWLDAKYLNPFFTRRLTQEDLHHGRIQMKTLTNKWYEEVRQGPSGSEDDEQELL
# UniProt Q9Y2M0: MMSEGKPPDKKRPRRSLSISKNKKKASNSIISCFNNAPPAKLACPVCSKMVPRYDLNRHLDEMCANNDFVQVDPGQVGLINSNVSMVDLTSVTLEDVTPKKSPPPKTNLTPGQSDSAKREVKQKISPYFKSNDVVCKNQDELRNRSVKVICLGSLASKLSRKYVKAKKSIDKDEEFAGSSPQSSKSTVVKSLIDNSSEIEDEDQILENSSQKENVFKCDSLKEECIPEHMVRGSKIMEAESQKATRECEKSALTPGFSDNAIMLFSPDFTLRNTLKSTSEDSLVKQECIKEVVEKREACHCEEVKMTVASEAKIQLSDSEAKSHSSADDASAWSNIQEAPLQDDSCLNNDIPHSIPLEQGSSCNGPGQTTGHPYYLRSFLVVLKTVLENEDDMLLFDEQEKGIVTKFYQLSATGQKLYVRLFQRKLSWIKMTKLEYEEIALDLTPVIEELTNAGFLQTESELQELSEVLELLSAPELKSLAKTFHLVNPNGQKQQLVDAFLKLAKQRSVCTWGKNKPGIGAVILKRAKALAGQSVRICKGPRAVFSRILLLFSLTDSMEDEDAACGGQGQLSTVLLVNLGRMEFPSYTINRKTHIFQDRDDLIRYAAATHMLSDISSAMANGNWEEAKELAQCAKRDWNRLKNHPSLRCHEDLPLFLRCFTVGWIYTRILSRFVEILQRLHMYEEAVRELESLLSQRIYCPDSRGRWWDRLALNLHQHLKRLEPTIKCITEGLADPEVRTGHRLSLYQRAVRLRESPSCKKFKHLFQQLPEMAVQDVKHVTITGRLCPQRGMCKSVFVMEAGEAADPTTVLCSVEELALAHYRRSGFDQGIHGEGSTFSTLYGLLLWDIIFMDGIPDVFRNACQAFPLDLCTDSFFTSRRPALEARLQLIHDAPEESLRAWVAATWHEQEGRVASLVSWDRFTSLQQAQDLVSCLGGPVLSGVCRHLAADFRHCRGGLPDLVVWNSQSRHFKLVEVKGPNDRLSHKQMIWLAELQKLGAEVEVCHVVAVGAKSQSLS
# UniProt Q9Y2K7: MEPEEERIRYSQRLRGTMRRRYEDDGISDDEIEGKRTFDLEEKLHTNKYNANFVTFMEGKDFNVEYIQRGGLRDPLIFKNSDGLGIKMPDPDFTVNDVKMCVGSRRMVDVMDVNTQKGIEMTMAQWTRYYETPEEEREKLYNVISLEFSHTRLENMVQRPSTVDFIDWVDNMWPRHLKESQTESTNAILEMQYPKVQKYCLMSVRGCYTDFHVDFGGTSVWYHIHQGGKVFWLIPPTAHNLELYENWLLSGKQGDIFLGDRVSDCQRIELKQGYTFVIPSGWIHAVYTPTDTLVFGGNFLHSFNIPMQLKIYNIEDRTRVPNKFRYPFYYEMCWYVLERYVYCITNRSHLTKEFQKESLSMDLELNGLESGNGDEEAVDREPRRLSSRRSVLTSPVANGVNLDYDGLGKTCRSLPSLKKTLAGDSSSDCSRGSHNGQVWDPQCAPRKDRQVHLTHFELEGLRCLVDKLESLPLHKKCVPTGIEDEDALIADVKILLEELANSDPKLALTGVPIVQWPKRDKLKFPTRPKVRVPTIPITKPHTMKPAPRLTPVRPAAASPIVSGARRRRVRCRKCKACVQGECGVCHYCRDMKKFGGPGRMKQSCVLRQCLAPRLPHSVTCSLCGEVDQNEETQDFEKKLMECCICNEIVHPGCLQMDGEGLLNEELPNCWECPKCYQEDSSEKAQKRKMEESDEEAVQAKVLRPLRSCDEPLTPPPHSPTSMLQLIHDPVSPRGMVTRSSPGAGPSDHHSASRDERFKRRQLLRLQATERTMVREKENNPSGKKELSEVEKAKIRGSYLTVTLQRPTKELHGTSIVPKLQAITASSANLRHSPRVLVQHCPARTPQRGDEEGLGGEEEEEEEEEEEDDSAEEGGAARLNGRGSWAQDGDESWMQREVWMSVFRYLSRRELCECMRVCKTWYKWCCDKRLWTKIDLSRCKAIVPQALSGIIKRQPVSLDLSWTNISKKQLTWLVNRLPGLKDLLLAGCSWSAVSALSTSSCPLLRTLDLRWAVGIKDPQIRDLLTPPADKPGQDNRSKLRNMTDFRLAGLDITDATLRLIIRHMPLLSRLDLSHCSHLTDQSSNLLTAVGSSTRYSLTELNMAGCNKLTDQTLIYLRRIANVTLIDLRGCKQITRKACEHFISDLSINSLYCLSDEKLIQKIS
# UniProt Q9Y2Q1, whole entry: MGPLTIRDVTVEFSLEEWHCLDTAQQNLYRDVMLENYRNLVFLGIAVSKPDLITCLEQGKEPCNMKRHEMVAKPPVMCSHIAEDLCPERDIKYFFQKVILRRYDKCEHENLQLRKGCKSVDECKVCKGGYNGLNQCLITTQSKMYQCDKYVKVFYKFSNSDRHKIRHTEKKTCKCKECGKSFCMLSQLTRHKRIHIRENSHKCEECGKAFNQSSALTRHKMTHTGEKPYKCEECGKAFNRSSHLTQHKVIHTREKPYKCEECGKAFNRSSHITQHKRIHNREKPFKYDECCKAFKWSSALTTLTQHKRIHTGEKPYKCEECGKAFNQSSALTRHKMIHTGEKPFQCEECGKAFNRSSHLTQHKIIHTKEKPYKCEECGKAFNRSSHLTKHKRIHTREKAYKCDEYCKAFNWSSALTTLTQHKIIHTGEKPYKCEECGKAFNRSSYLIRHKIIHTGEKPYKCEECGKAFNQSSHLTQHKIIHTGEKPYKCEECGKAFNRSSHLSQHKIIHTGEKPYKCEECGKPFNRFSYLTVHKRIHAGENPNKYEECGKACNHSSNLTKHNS
# UniProt Q9UNN5: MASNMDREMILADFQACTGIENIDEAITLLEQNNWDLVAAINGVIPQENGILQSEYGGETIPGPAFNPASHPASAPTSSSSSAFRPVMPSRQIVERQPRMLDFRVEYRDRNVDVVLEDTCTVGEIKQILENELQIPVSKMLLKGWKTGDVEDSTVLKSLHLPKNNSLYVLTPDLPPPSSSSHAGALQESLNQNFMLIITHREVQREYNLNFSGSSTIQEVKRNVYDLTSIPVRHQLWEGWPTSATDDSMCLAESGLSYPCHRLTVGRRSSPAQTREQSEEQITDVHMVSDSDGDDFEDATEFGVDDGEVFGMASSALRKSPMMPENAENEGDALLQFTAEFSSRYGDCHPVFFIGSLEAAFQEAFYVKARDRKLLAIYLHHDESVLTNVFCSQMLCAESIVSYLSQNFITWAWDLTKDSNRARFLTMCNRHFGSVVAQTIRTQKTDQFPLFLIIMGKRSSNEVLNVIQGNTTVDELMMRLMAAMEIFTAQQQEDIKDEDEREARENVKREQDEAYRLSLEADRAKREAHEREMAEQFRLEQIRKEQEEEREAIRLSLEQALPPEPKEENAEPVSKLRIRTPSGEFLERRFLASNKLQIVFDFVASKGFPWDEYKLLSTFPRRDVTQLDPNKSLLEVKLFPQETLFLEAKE
# UniProt Q9UKV5, whole entry: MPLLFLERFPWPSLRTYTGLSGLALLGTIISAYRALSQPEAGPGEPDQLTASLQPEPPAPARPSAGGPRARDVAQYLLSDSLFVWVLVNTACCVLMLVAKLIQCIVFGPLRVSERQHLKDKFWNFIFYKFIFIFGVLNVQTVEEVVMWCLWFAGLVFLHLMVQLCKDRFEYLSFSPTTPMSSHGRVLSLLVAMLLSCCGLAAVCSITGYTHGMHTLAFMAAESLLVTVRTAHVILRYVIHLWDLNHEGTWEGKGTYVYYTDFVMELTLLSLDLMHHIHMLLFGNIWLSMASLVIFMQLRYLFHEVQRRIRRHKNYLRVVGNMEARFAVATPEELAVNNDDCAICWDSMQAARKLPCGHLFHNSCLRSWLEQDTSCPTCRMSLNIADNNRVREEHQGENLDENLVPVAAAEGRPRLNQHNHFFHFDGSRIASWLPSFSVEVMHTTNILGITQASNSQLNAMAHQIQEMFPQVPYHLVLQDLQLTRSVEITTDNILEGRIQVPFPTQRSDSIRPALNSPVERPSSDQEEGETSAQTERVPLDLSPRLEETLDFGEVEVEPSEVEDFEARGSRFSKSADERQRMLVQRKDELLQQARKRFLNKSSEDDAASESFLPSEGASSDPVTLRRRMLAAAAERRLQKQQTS
# UniProt Q9UNQ2: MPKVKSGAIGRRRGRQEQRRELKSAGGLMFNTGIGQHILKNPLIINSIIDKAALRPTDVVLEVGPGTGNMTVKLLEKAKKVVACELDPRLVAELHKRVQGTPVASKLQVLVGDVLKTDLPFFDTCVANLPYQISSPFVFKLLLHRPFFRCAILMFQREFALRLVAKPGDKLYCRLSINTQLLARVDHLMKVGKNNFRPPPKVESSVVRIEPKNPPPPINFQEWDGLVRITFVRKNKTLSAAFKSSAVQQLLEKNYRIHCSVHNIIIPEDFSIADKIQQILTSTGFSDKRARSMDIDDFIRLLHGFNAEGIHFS
# UniProt Q9Y265, whole entry: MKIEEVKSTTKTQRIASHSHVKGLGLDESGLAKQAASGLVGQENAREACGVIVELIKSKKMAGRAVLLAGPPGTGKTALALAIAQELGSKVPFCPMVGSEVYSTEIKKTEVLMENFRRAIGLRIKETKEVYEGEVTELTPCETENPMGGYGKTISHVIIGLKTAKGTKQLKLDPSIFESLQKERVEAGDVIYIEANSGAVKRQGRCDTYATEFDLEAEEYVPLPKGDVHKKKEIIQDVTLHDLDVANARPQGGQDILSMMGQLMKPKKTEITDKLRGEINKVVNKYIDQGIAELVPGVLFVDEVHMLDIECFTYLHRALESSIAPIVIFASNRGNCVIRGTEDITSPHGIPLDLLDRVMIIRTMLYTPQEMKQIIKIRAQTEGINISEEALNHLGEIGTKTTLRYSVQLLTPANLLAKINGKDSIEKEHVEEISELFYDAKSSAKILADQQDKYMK
# This is one part of the list. Most entries show no effect beyond the scatter of the controls.
# Compound: CN[C@@H]1C[C@H]2O[C@@](C)([C@@H]1OC)n1c3ccccc3c3c4c(c5c6ccccc6n2c5c31)C(=O)NC4 [staurosporine]
# Assay: log2 fold change of tryptic peptide abundance, ligand vs vehicle (limited proteolysis) (log2 ratio); higher = more trypsin-susceptible (destabilized)
# Conditions: ligand concentration: 20 uM; sample: K562 cleared lysate; digestion: 4 min, 22 C (HT-PELSA RT4min, Orbitrap Astral)
row,Target,log2 fold change
1,"UniProt Q9Y2Q5 (peptide sequence: ETVGFGMLK, peptide start residue: 97)",0.219
2,"SLC9A8 (peptide sequence: YLNPFFTR, peptide start residue: 534) (UniProt Q9Y2E8)",0.372
3,"UniProt Q9Y2M0 (peptide sequence: SNDVVCKNQDELR, peptide start residue: 131)",-0.956
4,"UniProt Q9Y2K7 (peptide sequence: LTPVRPAAASPIVSGAR, peptide start residue: 549)",-0.221
5,"C19orf53 (peptide sequence: NLEVGIRK, peptide start residue: 52) (UniProt Q9UNZ5)",0.412
6,"UniProt Q9Y2Q1 (peptide sequence: AFNWSSALTTLTQHK, peptide start residue: 408)",-0.378
7,"FAF1 (peptide sequence: EMAEQFR, peptide start residue: 532) (UniProt Q9UNN5)",-0.0866
8,"AMFR (peptide sequence: KDELLQQAR, peptide start residue: 586) (UniProt Q9UKV5)",-0.699
9,"BSN (peptide sequence: HREEEQLLVQR, peptide start residue: 2404) (UniProt Q9UPA5)",0.301
10,"UniProt Q9UNQ2 (peptide sequence: CAILMFQR, peptide start residue: 150)",-0.253
11,"RUVBL1 (peptide sequence: AVLLAGPPGTGK, peptide start residue: 65) (UniProt Q9Y265)",-0.0993

# From no. 10 to 11, copied from above:
row,Target,log2 fold change
10,"UniProt Q9UNQ2 (peptide sequence: CAILMFQR, peptide start residue: 150)",-0.253
11,"RUVBL1 (peptide sequence: AVLLAGPPGTGK, peptide start residue: 65) (UniProt Q9Y265)",-0.0993
